# According to the supplement of paper PMC11348887:
# Counter-ions that a name gives are not always drawn. The list shows a part of the results. Small differences around the control level are noise.
# Test system: hPSC-derived cortical neurons (WA09)
# Test: nucleus roundness z-score vs screen plate; higher = rounder nuclei (more mature)
# Conditions: 5 µM; treatment: days 7-14 after plating, readout day 21
row,Structure (SMILES),nucleus roundness z-score
1,Oc1cc2c(cc1O)[C@@H]1c3ccc(O)c(O)c3OC[C@]1(O)C2 [Hematoxylin],0.921
2,Cc1ccc(S(=O)(=O)c2ccc([N+](=O)[O-])o2)cc1,-1.13
3,Cn1sc(=O)n(Cc2ccccc2)c1=O,0.145
4,CC(C)Cc1ccc(C(C)C(=O)O)cc1 (stereo not drawn) [Ibuprofen Lysine],0.634
5,CN1CCC[C@H]1c1cccnc1 [Nicotine Ditartrate],1.28
6,Cn1ncc(Cl)c1-c1cc(C(=O)N[C@H](CN)Cc2ccc(F)c(F)c2)oc1Cl,-2.45
7,CCOC(=O)C1=C(COCCN)NC(C)=C(C(=O)OC)C1c1ccccc1Cl (stereo not drawn) [Amlodipine],-0.97
8,COc1cc(-c2cn(C)c(=O)c3cnccc23)cc(OC)c1CN(C)C,0.568
9,Cc1cc(C)c(S(=O)(=O)n2cc(C)cc2C)c(C)c1,0.352
10,O=C(Nc1ccc(OC(F)(F)F)cc1)c1sccc1NCc1ccnc2ccccc12,1.49
11,CCOC(=O)[C@@H](N)Cc1ccc(-c2cc(O[C@H](c3ccc(Cl)cc3-n3ccc(C)n3)C(F)(F)F)nc(N)n2)cc1 [Telotristat Etiprate (LX 1606 Hippurate)],-0.313
12,COc1cc2nccc(Oc3ccc(NC(=O)C4(C(=O)Nc5ccc(F)cc5)CC4)cc3)c2cc1OC [Cabozantinib malate (XL184)],-0.348
13,CNC(=O)c1nn(C)c2c1C(C)(C)Cc1cnc(Nc3ccc(N4CCN(C)CC4)cc3)nc1-2,-4.96
14,CC(=O)O[C@H]1C[C@@H]2CC[C@@H]3[C@H](CC[C@@]4(C)[C@H]3C[C@H]([N+]3(C)CCCCC3)[C@@H]4OC(C)=O)[C@@]2(C)C[C@@H]1N1CCCCC1 [Vecuronium Bromide],0.177
15,CC(C(=O)O)c1cccc(C(=O)c2ccccc2)c1 (stereo not drawn) [Ketoprofen],0.33
16,CC(C(=O)O)c1cccc(Oc2ccccc2)c1 (stereo not drawn) [Fenoprofen Calcium],0.0123
17,CNC[C@H](O)c1ccc(O)c(O)c1 [Epinephrine HCl],-0.429
18,COc1cc(OC)c(/C=C/S(=O)(=O)Cc2ccc(OC)c(NCC(=O)O)c2)c(OC)c1,-2.67
19,Cc1cccc(-c2nn3c(c2-c2ccnc4ccc(C(N)=O)cc24)CCC3)n1,-5
20,O=C(Nc1c(Cl)cncc1Cl)c1ccc(OC(F)F)c(OCC2CC2)c1 [Roflumilast],-0.0255
21,Cc1cc([C@@H](C)Nc2ccccc2C(=O)O)c2nc(N3CCOCC3)cc(=O)n2c1,-0.0792
22,COc1ccccc1N1CCN(CCCNc2cc(=O)n(C)c(=O)n2C)CC1 [Urapidil HCl],-1.2
23,COc1cc(-c2cc(-c3cccc(O)c3)cnc2N)cc(OC)c1OC,-0.392
24,CCCc1ncc(C[n+]2ccccc2C)c(N)n1 [Amprolium HCl],0.5

# Test system: hPSC-derived cortical neurons (WA09)
# Test: KCl-induced FOS+/EGR-1+ double-positive nuclei fraction z-score (KCl minus unstimulated); higher = stronger activity-induced IEG response
# Conditions: 5 µM; treatment: days 7-14 after plating, readout day 21
row,Structure (SMILES),KCl-induced FOS+/EGR-1+ double-positive nuclei fraction z-score
1,N.N.O=C([O-])C[O-].[Pt+2] [Nedaplatin],0.725
2,CCC1(c2c[nH]cn2)Cc2ccccc2C1 [Atipamezole],1.36
3,CN1CCc2c(c3ccccc3n2Cc2ccc(C(=O)NO)cc2)C1 [Tubastatin A HCl],-0.583
4,O=C(CCNNC(=O)c1ccncc1)NCc1ccccc1 [Nialamide],-0.423
5,CC(=O)OCC(=O)[C@@]12N=C(C)O[C@@H]1C[C@H]1[C@@H]3CCC4=CC(=O)C=C[C@]4(C)[C@H]3[C@@H](O)C[C@@]12C [Deflazacort],1.04
6,Cc1cc(NS(=O)(=O)c2ccc(N)cc2)no1 [Sulfamethoxazole],0.192
7,Oc1nc(-c2ccc(C(F)(F)F)cc2)nc2c1CSCC2,-0.417
8,CC1(COc2ccc3c(c2)ncn3-c2ccc3cccc(N4CCC(N)CC4)c3n2)COC1,0.108
9,N=C(N)N [Guanidine HCl],-0.484
10,Cc1cnc(C(=O)NCCc2ccc(S(=O)(=O)NC(=O)NC3CCCCC3)cc2)cn1 [Glipizide],-0.088
11,Nc1ncnc2c1c(-c1cnc3[nH]ccc3c1)nn2C1CCCC1,-0.789
12,C/C=C1/[C@H](O[C@@H]2O[C@H](CO)[C@@H](O)[C@H](O)[C@H]2O)OC=C(C(=O)OC)[C@H]1CC(=O)OCCc1ccc(O)c(O)c1 [Oleuropein],1.32
13,N#Cc1ccc(-c2c(-c3ncn[nH]3)sc(N3CCOCC3)c2C#N)c(F)c1,-0.39
14,CC(=O)Oc1cc2c(s1)CCN(C(C(=O)C1CC1)c1ccccc1F)C2 (stereo not drawn) [Prasugrel],-0.74
15,O=C(Nc1ccc(-c2ccnc(Nc3ccc(N4CCOCC4)cc3)n2)cc1)C1CCCN1 (stereo not drawn),-0.6
16,Oc1cc2c(cc1O)[C@@H]1c3ccc(O)c(O)c3OC[C@]1(O)C2 [Hematoxylin],0.267
17,Cc1ccc(S(=O)(=O)c2ccc([N+](=O)[O-])o2)cc1,1.3
18,Cn1sc(=O)n(Cc2ccccc2)c1=O,2.31
19,CC(C)Cc1ccc(C(C)C(=O)O)cc1 (stereo not drawn) [Ibuprofen Lysine],1.74
20,CN1CCC[C@H]1c1cccnc1 [Nicotine Ditartrate],1.35

row,Structure (SMILES),KCl-induced FOS+/EGR-1+ double-positive nuclei fraction z-score
1,Cn1ncc(Cl)c1-c1cc(C(=O)N[C@H](CN)Cc2ccc(F)c(F)c2)oc1Cl,-1.36
2,CCOC(=O)C1=C(COCCN)NC(C)=C(C(=O)OC)C1c1ccccc1Cl (stereo not drawn) [Amlodipine],-0.831
3,COc1cc(-c2cn(C)c(=O)c3cnccc23)cc(OC)c1CN(C)C,0.0929
4,Cc1cc(C)c(S(=O)(=O)n2cc(C)cc2C)c(C)c1,1.08
5,O=C(Nc1ccc(OC(F)(F)F)cc1)c1sccc1NCc1ccnc2ccccc12,4.01
6,CCOC(=O)[C@@H](N)Cc1ccc(-c2cc(O[C@H](c3ccc(Cl)cc3-n3ccc(C)n3)C(F)(F)F)nc(N)n2)cc1 [Telotristat Etiprate (LX 1606 Hippurate)],0.49
7,COc1cc2nccc(Oc3ccc(NC(=O)C4(C(=O)Nc5ccc(F)cc5)CC4)cc3)c2cc1OC [Cabozantinib malate (XL184)],0.557
8,CNC(=O)c1nn(C)c2c1C(C)(C)Cc1cnc(Nc3ccc(N4CCN(C)CC4)cc3)nc1-2,-0.55
9,CC(=O)O[C@H]1C[C@@H]2CC[C@@H]3[C@H](CC[C@@]4(C)[C@H]3C[C@H]([N+]3(C)CCCCC3)[C@@H]4OC(C)=O)[C@@]2(C)C[C@@H]1N1CCCCC1 [Vecuronium Bromide],1.15
10,CC(C(=O)O)c1cccc(C(=O)c2ccccc2)c1 (stereo not drawn) [Ketoprofen],0.499
11,CC(C(=O)O)c1cccc(Oc2ccccc2)c1 (stereo not drawn) [Fenoprofen Calcium],4.93
12,CNC[C@H](O)c1ccc(O)c(O)c1 [Epinephrine HCl],0.851
13,COc1cc(OC)c(/C=C/S(=O)(=O)Cc2ccc(OC)c(NCC(=O)O)c2)c(OC)c1,0.603
14,Cc1cccc(-c2nn3c(c2-c2ccnc4ccc(C(N)=O)cc24)CCC3)n1,-0.803
15,O=C(Nc1c(Cl)cncc1Cl)c1ccc(OC(F)F)c(OCC2CC2)c1 [Roflumilast],-1.49
16,Cc1cc([C@@H](C)Nc2ccccc2C(=O)O)c2nc(N3CCOCC3)cc(=O)n2c1,-0.158
17,COc1ccccc1N1CCN(CCCNc2cc(=O)n(C)c(=O)n2C)CC1 [Urapidil HCl],0.445
18,COc1cc(-c2cc(-c3cccc(O)c3)cnc2N)cc(OC)c1OC,1.54
19,CCCc1ncc(C[n+]2ccccc2C)c(N)n1 [Amprolium HCl],-1.07

# Part of the list above, tab-delimited:
row	Structure (SMILES)	KCl-induced FOS+/EGR-1+ double-positive nuclei fraction z-score
1	Cn1ncc(Cl)c1-c1cc(C(=O)N[C@H](CN)Cc2ccc(F)c(F)c2)oc1Cl	-1.36
2	CCOC(=O)C1=C(COCCN)NC(C)=C(C(=O)OC)C1c1ccccc1Cl (stereo not drawn) [Amlodipine]	-0.831
